# Measurements taken from paper PMC9478397.
# Results are given in words; binding and its absence hold for the method and conditions named. Some binding calls cover weakened binding; strength is not graded here.
# Biological target: Brucella abortus Bab2_0247 (Ba-BrbF), AFRPP formamidase (Brucella abortus) (UniProt Q2YJ05)
# Test: two-hybrid
substance,measurement,value
"Brucella abortus Bab2_0247 (Ba-BrbF), AFRPP formamidase (from UniProt Q2YJ05 1-256) (enzyme)",binding,binds
